Data published in the supplement of paper PMC11542785.
Structures can show the parent of a compound that is named as a salt. Some of the results follow. Single values are uncertain, as repeats are few or missing.

System: Drosophila melanogaster DPAGT1 (Alg7) RNAi eye model
Test: eye size Z-score vs DMSO-treated DPAGT1 model flies; higher = larger eye (suppression of DPAGT1 phenotype)
Conditions: 5 uM

Row | Structure (SMILES) | eye size Z-score
1 | O=C(NC(Cc1cc(=O)[nH]c2ccccc12)C(=O)O)c1ccc(Cl)cc1 (configuration not stated) [Rebamipide] | 0.09
2 | C[N+](C)(C)CCOC(N)=O [Carbachol chloride] | -0.56
3 | CC(C)(C)NC[C@H](O)COc1cccc2c1CCCC2=O [(-) Levobunolol hydrochloride] | -0.44
4 | Nc1ncn(C2OC(CO)C(O)C2O)c(=O)n1 (configuration not stated) [Azacytidine-5] | -0.13
5 | NS(=O)(=O)c1cc(C(=O)NN2C[C@@H]3[C@H]4CC[C@H](C4)[C@@H]3C2)ccc1Cl [Tripamide] | 0.39
6 | CCOC(=O)C1=C(C)NC(C)=C(C(=O)OC)C1c1cccc(Cl)c1Cl (configuration not stated) [Felodipine] | -0.08
7 | C[C@H](CCC(=O)O)[C@H]1CC[C@H]2[C@@H]3C(=O)C[C@@H]4CC(=O)CC[C@]4(C)[C@H]3CC(=O)[C@]12C [Dehydrocholic acid] | 0.67
8 | O=C1c2c(O)ccc(O)c2C(=O)c2c(NCCNCCO)ccc(NCCNCCO)c21 [Mitoxantrone dihydrochloride] | 0.34
9 | CCN(CC)CCNC(=O)c1cc(Br)c(N)cc1OC [Bromopride] | -0.7
10 | CCCCC(=O)N(Cc1ccc(-c2ccccc2-c2nnn[nH]2)cc1)[C@H](C(=O)O)C(C)C [Valsartan] | -0.76
11 | OC(CCN1CCCCC1)(c1ccccc1)c1ccccc1 [Pridinol methanesulfonate salt] | 0.22
12 | O=C1c2cccc(O)c2C(=O)c2c(O)cccc21 [Danthron] | -0.15
13 | CCOC(=O)C1=C(C)NC(C)=C(C(=O)OC)C1c1cccc([N+](=O)[O-])c1 (configuration not stated) [Nitrendipine] | 0.26
14 | CCn1cc(C(=O)O)c(=O)c2cc(F)c(N3CCNCC3)cc21 [Norfloxacin] | -1.79
15 | O=C(c1ccc(OCCN2CCCCC2)cc1)c1c(-c2ccc(O)cc2)sc2cc(O)ccc12 [Raloxifene hydrochloride] | -2.29
16 | CC(CN1c2ccccc2Sc2ccccc21)N(C)C (configuration not stated) [Promethazine hydrochloride] | 0
17 | NS(=O)(=O)c1cc2c(cc1C(F)(F)F)NC(Cc1ccccc1)NS2(=O)=O (configuration not stated) [Bendroflumethiazide] | 0.2
18 | COc1cc(N)c(Cl)cc1C(=O)NC1CCN(Cc2ccccc2)CC1 [Clebopride maleate] | 0.1
19 | CCc1oc2ccccc2c1C(=O)c1ccc(O)cc1 [Benzarone] | 0.62
20 | Nc1nc(N)nc(-c2cc(Cl)ccc2Cl)n1 [Irsogladine maleate] | 0.86
21 | CCN1CCCC1CNC(=O)c1cc(S(=O)(=O)CC)c(N)cc1OC (configuration not stated) [Amisulpride] | 0.15
22 | COc1c(O)cc2c(c1O)[C@@H]1O[C@H](CO)[C@@H](O)[C@H](O)[C@H]1OC2=O [Bergenin] | -0.18

Exported tab-delimited: 2 of the compounds above.
Row	Structure (SMILES)	eye size Z-score
8	O=C1c2c(O)ccc(O)c2C(=O)c2c(NCCNCCO)ccc(NCCNCCO)c21 [Mitoxantrone dihydrochloride]	0.34
12	O=C1c2cccc(O)c2C(=O)c2c(O)cccc21 [Danthron]	-0.15
